Reference: PubChem BioAssay AID330 (DTP/NCI, 2004)
The list shows only some results of the screen, not a fair sample: it is rich in T/C values a quarter to a half above the control, in often repeated tests (any T/C) and in doses without a T/C. Other doses and runs of a compound stand elsewhere. T/C: endpoint of the treated group in % of that of the vehicle group. Some doses have a count of surviving animals in place of a T/C: the source files T/C as zero there, which appears to mark a toxic dose or a test without result, not a measured value. Some doses without a T/C left all or most animals alive at the check, yet need not have been tolerated: survival well below the control is almost never listed, so the zero probably covers shortened survival too. Survivors were counted at the toxicity check, usually on the fifth day, unless a day is given; later deaths do not show. Schedules are NCI's codes, taken here to give the interval after Q, in days (D) or hours (H), and the number of doses after X. Some structures stand for samples that the source files as different forms (salt, stereo form or complex); doses refer to the form tested. Where survival is the endpoint, the PubChem record calls one and a half times the control and up active, and a quarter to a half above the control has no call in these data; cut-offs in other NCI protocols can differ. Some entries hold several experiments; their values stand side by side, smallest first. Some T/C values carry the count of animals alive at the toxicity check (mostly the fifth day); where none is given, no animal had died by that day.

Tested on: P388 leukemia ip, CD2F1 mice, survival T/C
Assay: NCI In Vivo Anticancer Drug Screen. Data for tumor model P388 Leukemia (intraperitoneal) in CD2F1 (CDF1) mice
Settings: T/C endpoint: median survival time, higher T/C = longer survival
[1] = dose: 60.0 mg/kg/injection, schedule: Q01DX005 (ip), vehicle: Klucel (hydroxypropylcellulose) (HPC)
[2] = dose: 240.0 mg/kg/injection, schedule: Q01DX005 (ip), vehicle: saline with Tween-80
[3] = dose: 120.0 mg/kg/injection, schedule: Q01DX005 (ip), vehicle: saline with Tween-80

SMILES: O=C1CC[C@H]2[C@@H]3N1c1ccccc1[C@@]31CCN3C/C(=C/CBr)[C@@H]2C[C@H]31
- survivor count (dose: 30.0 mg/kg/injection, schedule: Q01DX005 (ip), vehicle: Klucel (hydroxypropylcellulose) (HPC)): 1 of 6
- survivor count [1]: 0 of 6
- survivor count (dose: 120.0 mg/kg/injection, schedule: Q01DX005 (ip), vehicle: Klucel (hydroxypropylcellulose) (HPC)): 0 of 6
- survivor count (dose: 240.0 mg/kg/injection, schedule: Q01DX005 (ip), vehicle: Klucel (hydroxypropylcellulose) (HPC)): 0 of 6

SMILES: CC1OC(O[C@H]2C[C@](O)(C(C)O)Cc3c(O)c4c(c(O)c32)C(=O)c2c(O)cccc2C4=O)CC(NC=O)C1O (stereo not given in full)
- T/C (dose: 0.65 mg/kg/injection, schedule: Q04DX003 (ip), vehicle: water): 132 % of control
- T/C (dose: 1.29 mg/kg/injection, schedule: Q04DX003 (ip), vehicle: water): 138 % of control
- T/C (dose: 2.58 mg/kg/injection, schedule: Q04DX003 (ip), vehicle: water): 136 % of control
- T/C (dose: 5.16 mg/kg/injection, schedule: Q04DX003 (ip), vehicle: water, evaluated on day 45): 136 % of control [4 of 6 alive on day 9]
- T/C (dose: 5.16 mg/kg/injection, schedule: Q04DX003 (ip), vehicle: water, evaluated on day 60): 129 % of control
- T/C (dose: 10.32 mg/kg/injection, schedule: Q04DX003 (ip), vehicle: water): 127 % of control

SMILES: OCCN1CCN(CCCN2c3cc(Cl)ccc3Sc3ccsc32)CC1
- survivor count (dose: 200.0 mg/kg/injection, schedule: Q01DX005 (ip), vehicle: Klucel (hydroxypropylcellulose) (HPC)): 3 of 6

SMILES: Clc1ccc2c(c1)CN1Cc3cc(Cl)ccc3C2C1
- survivor count (dose: 200.0 mg/kg/injection, schedule: Q01DX001 (ip), vehicle: saline with Tween-80): 5 of 6

SMILES: COC(=O)Nc1nc2ccc(CCC(=O)c3c(C)oc(C)c3-c3ccc(NC(C)=O)cc3)cc2[nH]1
- T/C [2]: 133 % of control

SMILES: CCN=C1SCCCS1
- survivor count (dose: 200.0 mg/kg/injection, schedule: Q01DX009 (ip), vehicle: saline with Tween-80): 1 of 6

SMILES: O=C(O)c1ccccc1C(=O)Nc1ccccc1C(F)(F)F
- survivor count (dose: 600.0 mg/kg/injection, schedule: Q01DX009 (ip), vehicle: saline with Tween-80): 3 of 6

SMILES: COC1=CC(=O)C(OC)=C(C2C(=O)N(C)c3ccccc32)C1=O (stereo not given)
- T/C (dose: 30.0 mg/kg/injection, schedule: Q01DX005 (ip), vehicle: saline): 133 % of control
- survivor count [3]: 6 of 6
- survivor count [2]: 1 of 6

SMILES: Cc1cc(C)c2ccc(NN=O)nc2n1
- T/C (dose: 3.12 mg/kg/injection, schedule: Q01DX009 (ip), vehicle: water): 128 % of control
- T/C (dose: 6.25 mg/kg/injection, schedule: Q01DX009 (ip), vehicle: water): 128 and 136 % of control
- T/C (dose: 12.5 mg/kg/injection, schedule: Q01DX009 (ip), vehicle: water): 136 % of control
- survivor count (dose: 50.0 mg/kg/injection, schedule: Q01DX009 (ip), vehicle: water): 6 of 6

SMILES: COCCCNP(=S)(N1CC1)N1CC1
- T/C (dose: 6.25 mg/kg/injection, schedule: Q01DX009 (ip), vehicle: saline): 137 % of control
- T/C (dose: 12.0 mg/kg/injection, schedule: Q04DX003 (ip), vehicle: saline): 145 % of control
- T/C (dose: 12.5 mg/kg/injection, schedule: Q04DX003 (ip), vehicle: saline with Tween-80): 147 % of control
- survivor count (dose: 25.0 mg/kg/injection, schedule: Q01DX009 (ip), vehicle: saline): 6 of 6
- survivor count (dose: 50.0 mg/kg/injection, schedule: Q04DX003 (ip), vehicle: saline with Tween-80): 6 of 6
- survivor count (dose: 100.0 mg/kg/injection, schedule: Q04DX003 (ip), vehicle: saline with Tween-80): 3 of 6
- survivor count (dose: 200.0 mg/kg/injection, schedule: Q04DX003 (ip), vehicle: saline with Tween-80): 6 of 6
- survivor count (dose: 400.0 mg/kg/injection, schedule: Q04DX003 (ip), vehicle: saline with Tween-80): 2 of 6

SMILES: [CH3][Sn]([CH3])([Cl])[c]1cc[c]([Sn]([CH3])([CH3])[Cl])cc1
- T/C (dose: 0.19 mg/kg/injection, schedule: Q01DX005 (ip), vehicle: saline): 131 % of control
- T/C (dose: 0.19 mg/kg/injection, schedule: Q01DX005 (ip), vehicle: suspension in saline): 126 % of control
- T/C (dose: 0.39 mg/kg/injection, schedule: Q01DX005 (ip), vehicle: saline): 134 and 140 % of control
- T/C (dose: 0.39 mg/kg/injection, schedule: Q01DX005 (ip), vehicle: suspension in saline): 127 % of control
- T/C (dose: 0.78 mg/kg/injection, schedule: Q01DX005 (ip), vehicle: suspension in saline, evaluated on day 20): 139 % of control
- T/C (dose: 0.78 mg/kg/injection, schedule: Q01DX005 (ip), vehicle: suspension in saline, evaluated on day 30): 131 % of control
- T/C (dose: 0.79 mg/kg/injection, schedule: Q01DX005 (ip), vehicle: saline): 141 % of control
- T/C (dose: 1.56 mg/kg/injection, schedule: Q01DX005 (ip), vehicle: saline): 143 and 144 % of control
- T/C (dose: 1.56 mg/kg/injection, schedule: Q01DX005 (ip), vehicle: suspension in saline, evaluated on day 20): 139 % of control
- T/C (dose: 1.56 mg/kg/injection, schedule: Q01DX005 (ip), vehicle: suspension in saline, evaluated on day 30): 138 % of control
- survivor count (dose: 3.12 mg/kg/injection, schedule: Q01DX005 (ip), vehicle: saline): 1 of 6
- survivor count (dose: 3.12 mg/kg/injection, schedule: Q01DX005 (ip), vehicle: suspension in saline): 0 of 6
- survivor count (dose: 6.25 mg/kg/injection, schedule: Q01DX005 (ip), vehicle: saline): 0 of 6
- survivor count (dose: 12.5 mg/kg/injection, schedule: Q01DX005 (ip), vehicle: saline): 0 of 6
- survivor count (dose: 50.0 mg/kg/injection, schedule: Q01DX005 (ip), vehicle: saline): 0 of 6
- survivor count (dose: 100.0 mg/kg/injection, schedule: Q01DX005 (ip), vehicle: saline): 0 of 6
- survivor count (dose: 200.0 mg/kg/injection, schedule: Q01DX005 (ip), vehicle: saline): 0 of 6

SMILES: Cc1cc(Cl)ccc1-n1nc(C)c2c(N)nc(N)nc21
- survivor count (dose: 400.0 mg/kg/injection, schedule: Q04DX003 (ip), vehicle: Klucel (hydroxypropylcellulose) (HPC)): 0 of 6

SMILES: COc1ccccc1C1OC2=Nc3cc(C)c(C)cc3NC2C1=O (stereo not given)
- survivor count [1]: 6 of 6

SMILES: CCN=NNc1ccc(C#N)cc1
- survivor count (dose: 100.0 mg/kg/injection, schedule: Q01DX009 (ip), vehicle: distilled water + Tween-80): 3 of 3

SMILES: CC1(C)N=C(N)N=C(N)N1c1cc(C(F)(F)F)cc(C(F)(F)F)c1
- survivor count (dose: 60.0 mg/kg/injection, schedule: Q01DX005 (ip), vehicle: saline): 0 of 6
- survivor count (dose: 120.0 mg/kg/injection, schedule: Q01DX005 (ip), vehicle: saline): 0 of 6
- survivor count (dose: 240.0 mg/kg/injection, schedule: Q01DX005 (ip), vehicle: saline): 0 of 6

SMILES: C/C=C(/C)C(=O)OC/C(=C/C)C(=O)OC1C=CC(C)(C)C(C=O)=C1C (stereo not given)
- survivor count (dose: 50.0 mg/kg/injection, schedule: Q01DX009 (ip), vehicle: Klucel (hydroxypropylcellulose) (HPC)): 6 of 6

SMILES: COc1cc2c(cc1OC)C13CCN4CC5=CCOC6CC(=O)N2C1C6C5CC43 (stereo not given)
- survivor count (dose: 100.0 mg/kg/injection, schedule: Q04DX003 (ip), vehicle: saline sonified): 3 of 6
- survivor count [3]: 0 of 6
- survivor count [2]: 0 of 6

SMILES: COC(=O)C#CBr
- survivor count (dose: 12.5 mg/kg/injection, schedule: Q04DX003 (ip), vehicle: saline): 4 of 6

SMILES: OCc1ccc2c(c1)CCC2
- survivor count (dose: 100.0 mg/kg/injection, schedule: Q01DX009 (ip), vehicle: other): 2 of 6
- survivor count (dose: 200.0 mg/kg/injection, schedule: Q01DX009 (ip), vehicle: other): 0 of 6
